PubChem BioAssay AID1159578 – Peter MacCallum Cancer Centre, 2015
The deposit covers about 18,000 reagents; below is an unselected part. Over the whole deposit, about 1,030 (5.7%) are marked active. 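Inactive calls also include pools with fewer than 3300 nuclei, whose migration was not assessed.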 Raw values vary from plate to plate and are shown uncorrected. Further read-outs or replicates are left out here.

Purpose: 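siRNA pools altering how lymphatic endothelial cells close a scratch wound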 (primary screen)
Cell system: human lymphatic endothelial cells
Knock-down reagent: siRNA pool against human genes, 40 nM
Timing: 48 h after transfection
Detection: 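Cells stained with dye and imaged after a scratch; covered wound area and nuclei counted, duplicates averaged, migration set against mock wells and turned into a robust z-score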
Direction: migration robust z-score: higher = faster migration into the scratch; nuclei per well: higher = more cells in the well
Call rule: 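Migration changed when robust z exceeds 2 or falls below -2 and mean nuclei number is at least 3300; otherwise not called changed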
Calls: active = migration changed; inactive = no migration change, or too few cells

GPR161 (G protein-coupled receptor 161)
- migration robust z-score: -0.42
- migration class with cell-count check: migration z between -2 and 2; enough cells
- nuclei per well, duplicate mean: 5032
- call: inactive

TMEM169 (transmembrane protein 169)
- migration robust z-score: 1.52
- migration class with cell-count check: migration z between -2 and 2; enough cells
- nuclei per well, duplicate mean: 7248
- call: inactive

TRAPPC3 (trafficking protein particle complex subunit 3)
- migration robust z-score: -0.3
- migration class with cell-count check: migration z between -2 and 2; enough cells
- nuclei per well, duplicate mean: 5357
- call: inactive

ERVFRD-1 (endogenous retrovirus group FRD member 1, envelope)
- migration robust z-score: -0.06
- migration class with cell-count check: migration z between -2 and 2; enough cells
- nuclei per well, duplicate mean: 5928
- call: inactive

RPRD1A (regulation of nuclear pre-mRNA domain containing 1A)
- migration robust z-score: 1.38
- migration class with cell-count check: migration z between -2 and 2; enough cells
- nuclei per well, duplicate mean: 4903
- call: inactive

C1orf56 (chromosome 1 open reading frame 56)
- migration robust z-score: -0.4
- migration class with cell-count check: migration z between -2 and 2; enough cells
- nuclei per well, duplicate mean: 6600
- call: inactive

DTNA (dystrobrevin alpha)
- migration robust z-score: 0.28
- migration class with cell-count check: migration z between -2 and 2; enough cells
- nuclei per well, duplicate mean: 3687
- call: inactive

MEIS2 (Meis homeobox 2)
- migration robust z-score: -0.31
- migration class with cell-count check: migration z between -2 and 2; enough cells
- nuclei per well, duplicate mean: 4660
- call: inactive

NETO1 (neuropilin and tolloid like 1)
- migration robust z-score: 0.92
- migration class with cell-count check: migration z between -2 and 2; enough cells
- nuclei per well, duplicate mean: 6338
- call: inactive

SPZ1 (spermatogenic leucine zipper 1)
- migration robust z-score: 1.01
- migration class with cell-count check: migration z between -2 and 2; enough cells
- nuclei per well, duplicate mean: 6362
- call: inactive

CCN4 (cellular communication network factor 4)
- migration robust z-score: -0.06
- migration class with cell-count check: migration z between -2 and 2; enough cells
- nuclei per well, duplicate mean: 6152
- call: inactive

JSRP1 (junctional sarcoplasmic reticulum protein 1)
- migration robust z-score: -0.32
- migration class with cell-count check: migration z between -2 and 2; enough cells
- nuclei per well, duplicate mean: 5048
- call: inactive

SOX30 (SRY-box transcription factor 30)
- migration robust z-score: 1.14
- migration class with cell-count check: migration z between -2 and 2; enough cells
- nuclei per well, duplicate mean: 5884
- call: inactive

ARMCX2 (armadillo repeat containing X-linked 2)
- migration robust z-score: -0.97
- migration class with cell-count check: migration z between -2 and 2; enough cells
- nuclei per well, duplicate mean: 7243
- call: inactive

DCP1B (decapping mRNA 1B)
- migration robust z-score: -0.83
- migration class with cell-count check: migration z between -2 and 2; enough cells
- nuclei per well, duplicate mean: 5574
- call: inactive

RLN1 (relaxin 1)
- migration robust z-score: -0.1
- migration class with cell-count check: migration z between -2 and 2; enough cells
- nuclei per well, duplicate mean: 5464
- call: inactive

SLC35G5
- migration robust z-score: 0.28
- migration class with cell-count check: migration z between -2 and 2; enough cells
- nuclei per well, duplicate mean: 6178
- call: inactive

MED25 (mediator complex subunit 25)
- migration robust z-score: 0.59
- migration class with cell-count check: migration z between -2 and 2; enough cells
- nuclei per well, duplicate mean: 6956
- call: inactive

NAGA (alpha-N-acetylgalactosaminidase)
- migration robust z-score: -0.34
- migration class with cell-count check: migration z between -2 and 2; enough cells
- nuclei per well, duplicate mean: 5366
- call: inactive

ASB5 (ankyrin repeat and SOCS box containing 5)
- migration robust z-score: -1.25
- migration class with cell-count check: migration z between -2 and 2; enough cells
- nuclei per well, duplicate mean: 5392
- call: inactive

TMEM87A (transmembrane protein 87A)
- migration robust z-score: 0.43
- migration class with cell-count check: migration z between -2 and 2; enough cells
- nuclei per well, duplicate mean: 6591
- call: inactive
